PubChem BioAssay AID686943 – Drosophila RNAi Screening Center – 2013

Aim: 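Fly genes whose loss alters ERK activation after insulin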 (primary screen)
Cell system: Drosophila S2R+ haemocyte-like cells expressing YFP-tagged ERK (Rolled)
Knock-down reagent: long dsRNA against Drosophila genes
Conditions: insulin stimulation versus unstimulated cells; dose and duration not given
Read-out: 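Antibody staining for doubly phosphorylated ERK divided by ERK-YFP signal, as plate z-scores, in insulin-treated and untreated cells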
Reading the numbers: replicate 1, z-score of dpERK with insulin and replicate 2, z-score of dpERK with insulin: higher = more active ERK per ERK-YFP after insulin; replicate 1, z-score of dpERK under basal conditions: higher = more basal active ERK per ERK-YFP; replicate 1, z-score of ERK-YFP with insulin: higher = more YFP-tagged ERK signal
The deposit covers about 23,000 reagents; this is an unselected part of those with a known target gene and a result. 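Extra replicates exist only for a retested subset of genes; insulin dose and duration not given; both raised and lowered dpERK matter.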 Names joined by + are all predicted targets of the reagent. Not stated in the record: the amount of reagent, the time to read-out.

target,amplicon,"replicate 1, z-score of dpERK with insulin","replicate 2, z-score of dpERK with insulin","replicate 1, z-score of dpERK under basal conditions","replicate 1, z-score of ERK-YFP with insulin"
Ns1,DRSC15529,-1.61,-0.85,-0.29,-0.61
CG32152,DRSC22906,0.56,-0.34,-1.03,0.5
CG15545,DRSC15083,0.59,-0.14,-0.05,1.15
Mst87F,DRSC16747,0.35,-0.94,-0.66,-0.02
pns,DRSC08598,-0.68,0.04,-0.47,0.39
Plzf,DRSC02994,1.54,0.62,1.78,0.17
CR44003 + CG44002,DRSC00523,-0.01,-0.23,-0.36,0.42
CR44003 + CG44002,DRSC00606,0.28,0.76,1.06,-0.46
CG30375,DRSC06834,0,-0.64,1.11,-0.07
mRpL30,DRSC18416,-0.73,-0.34,-0.88,0.42
CG13738,DRSC10065,-3.09,-2.21,0.48,-4.04
CG3556,DRSC18309,1,0.75,-0.01,-0.26
stac,DRSC13693,0.72,-0.12,1.13,-0.17
stac,DRSC14392,-0.16,-0.11,0.47,-0.66
stac,DRSC22197,-0.28,-0.61,-0.53,-0.92
CG32806,DRSC21699,0.24,-0.4,0.63,1.87
JhI-21,DRSC02161,0.57,0.04,0.25,0.2
Apc,DRSC14114,0.37,-0.12,1.56,0.14
CG33937 (retired record),DRSC15148,0.62,-0.56,-2.01,0.08
CG12581,DRSC12206,-0.09,0.9,1.65,0.14
CG12581,DRSC12207,0.49,-0.08,-0.12,-0.44
cora,DRSC07597,1.54,0.59,0.89,0.14
Twdlbeta,DRSC07310,-0.44,-1.08,1.02,0.05
Sry-beta,DRSC16868,0.2,-0.24,-0.29,-0.66
CG11226,DRSC11639,0.43,-0.07,-0.62,-0.13
emp,DRSC04019,-0.21,-0.05,0.65,0
emp,DRSC04683,0.75,0.36,0.33,-0.51
prod,DRSC07667,-1.68,-0.2,-0.75,1.01
CG1486,DRSC20508,-0.44,0.8,-0.36,-0.26
slp2,DRSC00836,0.19,0.1,0.59,-0.95
Esp,DRSC16664,0.6,0,-1.43,0.02
CG34315 + Orc3,DRSC07642,0.22,0.37,0.85,-0.05
CG11404,DRSC11656,0.7,0.06,0.02,-0.31
rho-5,DRSC02847,0.48,0.15,-1.65,-0.43
CG7985,DRSC14128,0.1,-0.19,0.08,0.84
CG6683,DRSC10694,0.84,0.48,0.22,0
Ugt35B1,DRSC16893,0.12,0.31,-0.1,0.44
CG15390,DRSC00404,0.42,-0.43,-0.13,-0.2
CG34288,DRSC13564,-2.4,-0.76,-0.26,0.64
Vps24,DRSC12332,-0.28,1.89,-0.53,-0.2
CG15202,DRSC19649,0.05,0.61,0.85,-0.03
CG13679,DRSC10037,0.92,-0.29,0.46,-0.07
CG13679,DRSC22749,-0.14,0.26,0.16,1.4
fs(1)M3,DRSC18381,0.17,-0.95,0.67,0.27
RFeSP,DRSC00702,-1.13,-1.89,0.47,1.88
Roc1a,DRSC18483,-0.19,0.22,-1.68,1.78
Clbn,DRSC14404,0.59,-0.01,0.9,0.03
Tmtc3,DRSC04444,-0.26,0.46,-0.55,0.52
beat-Va,DRSC14192,-0.49,-1.22,0.11,0.2
wde,DRSC05955,-0.18,-0.09,-0.14,1.32
RpS27A,DRSC03421,-1.36,-1.39,-3.39,-1.83
danr,DRSC14651,0.35,-0.22,-0.12,0.51
Osi18,DRSC12181,-0.2,-0.37,1.06,1.13
Acp53Ea,DRSC05916,-0.38,-0.39,-0.9,0.29
CG9147,DRSC03147,-0.81,-0.84,0.65,0.02
U2af38,DRSC00796,-1.17,-2.56,-0.26,3.16
CG3288,DRSC11745,0.55,0.09,1,-0.01
ND-13B,DRSC10643,-0.67,-0.3,1.12,0.51
betaTub60D,DRSC04673,0.78,0.27,-0.32,0.09
betaTub60D,DRSC22218,-0.47,-0.51,0.03,0.04
CG11899,DRSC16656,0.09,-0.14,-1.38,0.76
Mcad,DRSC09871,0.09,1.15,0.18,0.38
CG30289,DRSC03870,-0.38,-0.72,1.15,0.15
CG33301,DRSC02778,-0.18,0.4,-0.09,-1.21
Irk2,DRSC15569,0.07,-0.81,-0.05,0.23
CG15098,DRSC06527,-1.22,-1.6,-1.15,-0.15
CG31111,DRSC14649,-0.8,0,-1.68,-2.05
Glut3,DRSC16681,0.78,-1.54,1.04,-0.07
Tsp3A,DRSC18656,0.21,-1.07,-0.13,0.47
CG8677 + CG31626,DRSC01838,2.46,2.4,1.51,-0.97
CG6753,DRSC16108,0.78,0.88,0.65,-0.01
CG30062,DRSC21737,-0.46,0.09,-0.19,-0.75
CG17666,DRSC10276,0.03,0.26,0.6,0.41

Laid out differently: 5 of the entries above.
CR44003 + CG44002 [DRSC00523]
- replicate 1, z-score of dpERK with insulin: -0.01
- replicate 2, z-score of dpERK with insulin: -0.23
- replicate 1, z-score of dpERK under basal conditions: -0.36
- replicate 1, z-score of ERK-YFP with insulin: 0.42

CR44003 + CG44002 [DRSC00606]
- replicate 1, z-score of dpERK with insulin: 0.28
- replicate 2, z-score of dpERK with insulin: 0.76
- replicate 1, z-score of dpERK under basal conditions: 1.06
- replicate 1, z-score of ERK-YFP with insulin: -0.46

CG30375 [DRSC06834]
- replicate 1, z-score of dpERK with insulin: 0
- replicate 2, z-score of dpERK with insulin: -0.64
- replicate 1, z-score of dpERK under basal conditions: 1.11
- replicate 1, z-score of ERK-YFP with insulin: -0.07

mRpL30 [DRSC18416]
- replicate 1, z-score of dpERK with insulin: -0.73
- replicate 2, z-score of dpERK with insulin: -0.34
- replicate 1, z-score of dpERK under basal conditions: -0.88
- replicate 1, z-score of ERK-YFP with insulin: 0.42

CG13738 [DRSC10065]
- replicate 1, z-score of dpERK with insulin: -3.09
- replicate 2, z-score of dpERK with insulin: -2.21
- replicate 1, z-score of dpERK under basal conditions: 0.48
- replicate 1, z-score of ERK-YFP with insulin: -4.04
